According to patent US9205129B2, “Methods of treatment and screening assays for HIF-1α regulation” (University of Rochester, priority 2009, dated 2015):
At least one compound was matched to its structure with a doubt left.

Tested on: cleaved caspase-3 (cCasp3) in HN33.11 cells
Assay: Hypoxia-induced caspase-3 cleavage (Western blot) in HN33.11 stable lines
Assay type: cell-based, mouse
Conditions: control MCS line, doxycycline alone (FIG. 1D lane 3 vs. 4)

## C[C@H]1c2cccc(O)c2C(=O)C2=C(O)[C@]3(O)C(=O)C(C(N)=O)=C(O)[C@@H](N(C)C)[C@@H]3[C@@H](O)[C@@H]21 [doxycycline]
  effect on hypoxia-induced cCasp3 cleavage: partial protection
